# Assay: Passive avoidance test: scopolamine-induced memory impairment in rats
# Assay type: in vivo, male Sprague-Dawley
# Settings: scopolamine 2.0 mg/kg s.c. 15 or 30 minutes prior to the training session
smiles,measurement,value
CN1[C@@H]2C[C@@H](OC(=O)[C@H](CO)c3ccccc3)C[C@H]1[C@@H]1O[C@@H]12 [scopolamine],time to enter the dark compartment during the retention test,≤ 50 s

# Reference: patent US4665183A, “Process for preparing 6,7,8,9-tetrahydro-10-methylpyrido[1,2-a]indol-9-amines and derivatives thereof useful for the treatment of cognitive impairments” (American Home Products Corp., priority 1986, dated 1987)
